Source: publication doi:10.64898/2025.12.10.692585

Amino acid sequences for entries named in this document (tags omitted).
UniProt Q9UHW5: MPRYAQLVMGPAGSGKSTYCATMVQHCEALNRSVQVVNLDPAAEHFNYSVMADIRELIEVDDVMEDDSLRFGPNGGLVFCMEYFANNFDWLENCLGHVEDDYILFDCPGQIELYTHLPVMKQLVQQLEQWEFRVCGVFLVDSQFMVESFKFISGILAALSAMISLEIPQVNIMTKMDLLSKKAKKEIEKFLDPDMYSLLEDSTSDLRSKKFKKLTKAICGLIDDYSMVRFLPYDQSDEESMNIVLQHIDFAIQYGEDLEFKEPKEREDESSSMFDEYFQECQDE
UniProt O94762: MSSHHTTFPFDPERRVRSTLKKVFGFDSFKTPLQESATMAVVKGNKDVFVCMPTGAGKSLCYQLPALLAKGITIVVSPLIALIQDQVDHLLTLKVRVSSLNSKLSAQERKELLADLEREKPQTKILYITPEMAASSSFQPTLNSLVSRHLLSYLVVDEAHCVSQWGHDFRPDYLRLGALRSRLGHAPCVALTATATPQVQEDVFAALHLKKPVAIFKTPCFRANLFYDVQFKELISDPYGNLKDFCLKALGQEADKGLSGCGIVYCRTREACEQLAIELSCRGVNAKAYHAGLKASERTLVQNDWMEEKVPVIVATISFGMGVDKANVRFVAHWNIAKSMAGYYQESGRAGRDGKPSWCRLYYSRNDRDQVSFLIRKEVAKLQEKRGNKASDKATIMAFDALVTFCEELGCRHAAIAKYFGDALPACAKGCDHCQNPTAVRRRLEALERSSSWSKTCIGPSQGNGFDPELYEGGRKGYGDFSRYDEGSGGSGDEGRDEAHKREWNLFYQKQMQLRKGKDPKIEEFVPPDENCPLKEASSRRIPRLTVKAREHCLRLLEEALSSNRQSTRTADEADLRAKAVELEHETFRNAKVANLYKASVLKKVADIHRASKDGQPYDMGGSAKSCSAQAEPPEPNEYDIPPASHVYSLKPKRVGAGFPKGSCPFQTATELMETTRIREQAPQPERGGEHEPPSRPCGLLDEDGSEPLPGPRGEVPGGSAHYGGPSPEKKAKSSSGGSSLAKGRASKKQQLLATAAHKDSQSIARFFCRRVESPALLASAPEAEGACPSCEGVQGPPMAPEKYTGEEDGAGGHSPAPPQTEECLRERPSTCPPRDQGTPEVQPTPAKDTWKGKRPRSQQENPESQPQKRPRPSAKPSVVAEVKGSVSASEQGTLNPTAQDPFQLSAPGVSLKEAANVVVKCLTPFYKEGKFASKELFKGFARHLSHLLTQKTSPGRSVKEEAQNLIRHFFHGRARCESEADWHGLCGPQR
UniProt Q8IXW5: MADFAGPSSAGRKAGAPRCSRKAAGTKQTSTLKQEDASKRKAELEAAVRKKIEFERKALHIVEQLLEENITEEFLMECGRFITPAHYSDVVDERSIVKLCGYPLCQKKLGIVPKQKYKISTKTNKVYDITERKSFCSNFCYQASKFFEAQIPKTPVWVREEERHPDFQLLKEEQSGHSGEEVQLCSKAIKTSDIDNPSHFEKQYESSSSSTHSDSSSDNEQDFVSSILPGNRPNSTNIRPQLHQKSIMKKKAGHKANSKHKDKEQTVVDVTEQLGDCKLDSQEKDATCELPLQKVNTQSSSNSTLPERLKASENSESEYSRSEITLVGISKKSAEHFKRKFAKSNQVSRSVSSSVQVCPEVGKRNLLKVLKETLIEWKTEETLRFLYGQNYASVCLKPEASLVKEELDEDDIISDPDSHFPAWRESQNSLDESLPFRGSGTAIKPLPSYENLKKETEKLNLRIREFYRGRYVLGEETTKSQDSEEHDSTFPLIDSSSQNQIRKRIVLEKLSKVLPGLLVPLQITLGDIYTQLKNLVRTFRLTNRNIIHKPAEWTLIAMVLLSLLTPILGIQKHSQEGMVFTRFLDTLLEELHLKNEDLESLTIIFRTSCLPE

Key:
Assay in all cases: affinity purification with mass spectrometry
[1] = biological target: Gdown1, endogenously tagged (eGFP-AID-3C-Gdown1) (human (endogenous in K562)) (UniProt P0CAP2)
[2] = biological target: Gdown1, endogenously tagged (eGFP-AID-3C-Gdown1) (human (endogenous in K562)) (UniProt P0CAP2); remark: listed apart in the source
[3] = biological target: Gdown1, endogenously tagged (eGFP-AID-3C-Gdown1) (human (endogenous in K562)) (UniProt P0CAP2); remark: listed apart in the source

| binding [1] | binding [2] | binding [3] | Substance |
| --- | --- | --- | --- |
| binds | binds | – | GPN3, endogenous (from UniProt Q9UHW5 1-284) |
| binds | – | binds | RECQL5, endogenous (from UniProt O94762 1-991) |
| binds | binds | – | RPAP2, endogenous (from UniProt Q8IXW5 1-612) |

Where two headings read alike, the source gives them in different places. No constants are given. Whether binding was seen depends on the method and setting. Binding seen in cells or lysates may run through a third protein. A yes stands for co-enrichment or nearness to the bait. Other partners may have been found.
